Data from PubChem BioAssay AID540276 (National Center for Advancing Translational Sciences (NCATS), 2011).
“And” between values parts separate entries of the source, which are not always exact repeats. Identical values can stand only once. Screen size: about 300,000 compounds; about 5,400 (1.8%) were called active. The inconclusive results got no clear call from the source; some entries with a clear call stand among them for comparison. The call rests on the fitted dose curve; tested in HEK293 cells. Potencies beside an inconclusive call are fits to weak or partial responses and may not hold up.

Assay: qHTS for inhibitors of binding or entry into cells for Marburg Virus
Conditions: Marburg virus pseudotyped entry inhibition, cell reporter; series mostly up to 37.8 µM
Potency means the concentration at half of the fitted maximal effect.

Compound	Potency
Cc1ccccc1NC(=O)c1sc2nc[nH]c(=O)c2c1C	inconclusive: 0.103 µM [inhibitor, partial curve, poor fit]
Cc1ccccc1NC(=O)c1cc([N+](=O)[O-])ccc1NCCN1C(=O)CCC1=O	inconclusive: 8.91 µM [inhibitor, partial curve, poor fit]
Oc1cccc(/C=N/N=C/c2cccc(O)c2O)c1O	inconclusive: 10 µM [inhibitor, partial curve, poor fit]
Cc1ccc(-c2nnc(NCc3nc4ccccc4[nH]3)c3ccccc23)cc1S(=O)(=O)N(C)C	inconclusive: 10 µM [inhibitor, partial curve]
NC(=O)c1ncn([C@@H]2O[C@H](CO)[C@@H](O)[C@H]2O)n1	inactive and inconclusive: 1 µM [inhibitor, full curve, poor fit] and inconclusive: 20.6 µM [inhibitor, single point]
COc1ccc(-c2ccc(CN3C(C(C)C)C(=O)N(Cc4cn(CC5CCCCC5)nn4)CCS3(=O)=O)cc2)cc1OC (configuration not stated)	inconclusive: 8.87 µM [inhibitor, full curve, poor fit]
CS(=O)(=O)N(CC(=O)Nc1ccc(Br)cc1F)C1CCCCC1	inconclusive: 35.5 µM [inhibitor, single point]
COc1cccc(OCc2cc(C(=O)N3CCN(C4CCCC4)CC3)no2)c1	inactive
CN(CC(=O)Nc1cccc(S(=O)(=O)NC2=NCCCCC2)c1)Cc1ccc(C(C)(C)C)cc1	inconclusive: 2.51 µM [inhibitor, partial curve, poor fit]
CCCC(C)c1nnc(NC(=O)C2CC(=O)N(CCc3ccc(F)cc3)C2)s1 (configuration not stated)	inactive
O=C(NCCN1C(=O)S/C(=C\c2ccccc2F)C1=O)C1CCCN1C(=O)c1cccs1 (configuration not stated)	inconclusive: 0.1 µM [activator, full curve, poor fit]
CC(=O)c1sc(Nc2cccc(C)c2)nc1C	inconclusive: 1.41 µM [activator, partial curve, poor fit]
COc1ccc([N+](=O)[O-])cc1NC(=O)C(C)N(C)Cc1ccc(Br)cc1 (configuration not stated)	inactive
O=C(NCCCN1CCc2ccccc2C1)Nc1ccc(Br)cc1	inactive
O=C(O)C1CCCCC1C(=O)Nc1ccccc1Cl (configuration not stated)	inconclusive: 0.92 µM [inhibitor, full curve, poor fit]
Cc1cccc(NC(=O)CCC(=O)N/N=C/c2ccco2)c1C	inconclusive: 3.16 µM [activator, single point]
CCNC(=O)OCCC12CC3CC(CC(C3)C1)C2	inactive
O=C1CN(C(=O)c2cc(F)cc(F)c2)c2ccccc2N1	inconclusive: 22.4 µM [inhibitor, partial curve, poor fit]
FC(F)(F)COc1nc(N2CCOCC2)nc(N(c2ccccc2)c2ccccc2)n1	active: 13 µM
CCOc1ccc(NC(=O)CN2C(=O)C(c3ccc(Cl)cc3)=NC2(C)C)cc1	inactive
CCC(=O)N1CCc2cc(Br)cc(S(=O)(=O)N3CCCC(C(=O)Nc4cc(C)ccc4OC)C3)c21 (configuration not stated)	inconclusive: 2.51 µM [inhibitor, partial curve, poor fit]

Compound	Potency
O=[N+]([O-])c1ccccc1OC/C(=N\O)c1ccccc1	inconclusive: 35.5 µM [inhibitor, single point]
CC(C)C(C)(C#N)NC(=O)CSc1nnc(C(F)(F)F)n1C (configuration not stated)	inconclusive: 15.8 µM [activator, partial curve, poor fit]
C/C(N)=C(/C#N)C(=O)CSc1nc2ccccc2c(=O)n1-c1ccc(C)c(Cl)c1	inconclusive: 0.126 µM [inhibitor, full curve, poor fit]
Cc1ccc(-c2nc3ccc(C(=O)O)cc3nc2-c2ccc(C)cc2)cc1	inactive
CSc1ccc(Cl)c(C(=O)OCC(=O)N2CCOCC2)c1	inactive
COc1ccccc1C(=O)N/C(=C\c1ccc2c(c1)OCO2)C(=O)NCCc1nc2ccccc2[nH]1	inconclusive: 6.31 µM [activator, single point]
C/C(O)=C/c1nc2ccccc2[nH]c1=O	inconclusive: 6.31 µM [inhibitor, single point]
O=c1c2ccccc2nc(-c2ccco2)n1-c1ccccc1	inconclusive: 6.31 µM [activator, partial curve, poor fit]
C=CCSc1nc(C)cc(/C=C\c2ccccc2)c1C#N	inactive
C#CCN1C(=O)C2(CC(C)=C[C@@H](C)O2)c2c(Br)cccc21 (some centres not stated)	inconclusive: 1.33 µM [activator, partial curve, poor fit]
CCC(SC1=N/C(=C/c2ccccc2OC)C(=O)N1c1ccccc1)C(=O)Nc1cc(C)on1 (configuration not stated)	inconclusive: 20 µM [inhibitor, single point]
Cc1ccc(Cl)cc1NC(=O)C(Cc1ccccc1)NS(=O)(=O)c1cccc2nsnc12 (configuration not stated)	inactive
O=C(c1ccco1)N1CCCC(c2nc3c(nnn3Cc3ccccc3)c(=O)[nH]2)C1 (configuration not stated)	inactive
COc1ccc(CCNC(=O)COc2ccc(S(=O)(=O)N3CCCC3)cc2)cc1	inconclusive: 3.55 µM [activator, single point]
COc1cc(CNC(C)(C)CO)ccc1OCC(=O)Nc1ccc(Br)cc1	inconclusive: 20.6 µM [inhibitor, single point]
Cc1ccc(-c2cc3ncc(C(=O)c4cc(Cl)c(C)cc4O)cn3n2)cc1	inconclusive: 5.62 µM [activator, single point]
CC(C)N1C/C(=C/c2cccnc2)C(=O)/C(=C/c2cccnc2)C1	active: 4.47 µM
CCOC(=O)c1csc(NC(=O)C2CCCCC2)n1	inactive
COc1ccc(CCNC2CCC(c3ccccc3)CC2)cc1 (configuration not stated)	inconclusive: 35.5 µM [inhibitor, single point]
O=C(Nc1cc([N+](=O)[O-])ccc1N1CCCC1)c1cccs1	inactive
O=[N+]([O-])c1ccccc1S(=O)(=O)Oc1ccc(C(=S)N2CCOCC2)cc1	inconclusive: 35.5 µM [inhibitor, single point]
